PubChem BioAssay AID602196 – INSERM, 2012

Purpose: 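Knock-downs that protect lung cancer cells from cisplatin or sensitise them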
Cell system: human A549 lung cancer cells
Knock-down reagent: siRNA pair against human genes
Time to read-out: 48 h transfection before cisplatin; time from cisplatin to read-out not stated
Challenge: cisplatin at a dose killing half of control-siRNA cells; exact dose and duration not given
Detection: 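Shift in cisplatin death relative to control siRNA, from -50 (all cells die) to +50 (no cells die); siRNAs harmful on their own scored 0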
Reading the numbers: two-siRNA summed score (-2 to +2): higher = both siRNAs protect from cisplatin killing; -2 means both sensitise; mean protection from cisplatin (shift in death) and protection from cisplatin (shift in death), siRNA C: higher = protection from cisplatin killing
Call rule: 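Each siRNA scores 0 if harmful alone by LDH or WST-1, otherwise +1 if it reduces and -1 if it increases cisplatin killing; a gene is active when both siRNAs agree (sum +2 or -2)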
Calls: active = both siRNAs shift cisplatin killing the same way; inactive = no consistent shift, or siRNA harmful alone
Here is an unselected part of about 23,000 deposited reagents. Of all reagents, 455 (2%) are marked active. 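Active includes both protection and sensitisation; some change values fall well beyond the stated -50 to +50 range.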 Not all columns of the deposit are shown. The record does not give: the amount of reagent.

Gene | two-siRNA summed score (-2 to +2) | mean protection from cisplatin (shift in death) (%) | protection from cisplatin (shift in death), siRNA C (%) | Outcome
LOC388282 | 0 | 4 | -15.4 | inactive
CAPZA3 | 0 | -5.7 | -1.5 | inactive
ALDH3A2 | 0 | 0.9 | 6 | inactive
LOC387706 | 0 | 17 | 13.6 | inactive
ENDOV | 0 | 4.4 | 28.5 | inactive
TXNL4B | 0 | 6.4 | 10.7 | inactive
IGFBP7 | 0 | -1.9 | 5.8 | inactive
LOC441004 | 0 | 8.9 | 4.7 | inactive
ELOVL3 | 0 | 3.5 | 0.4 | inactive
LOC439954 | 0 | 2.4 | 6.1 | inactive
LOC388949 | 1 | 17.4 | 15.2 | inactive
ANKHD1-EIF4EBP3 | 0 | 18.5 | 19.9 | inactive
LOC253883 | 0 | 7.7 | 2.3 | inactive
TRPC7 | 0 | 19.4 | 29.1 | inactive
SLC37A2 | 0 | 2.5 | -13.1 | inactive
CLDN6 | 1 | 8.3 | 5 | inactive
NCR3 | 0 | 4.2 | 2.8 | inactive
LINC00839 | 0 | 2.6 | 8.4 | inactive
HEATR5B | 0 | 6.4 | 8.9 | inactive
NF2 | 0 | -3.1 | -8.7 | inactive
MPP7 | 1 | 6.6 | 14.4 | inactive
ZNF667 | 0 | 12.5 | 15.9 | inactive
KIF23 | 0 | 4.8 | 11.9 | inactive
TALDO1 | 0 | 8.7 | 14.9 | inactive
FXYD3 | 1 | 14.8 | 2.4 | inactive
LOC283155 | 1 | 7 | 3.3 | inactive
GCH1 | 0 | 3.1 | 9.1 | inactive
ELMOD3 | 0 | 8.7 | 11.3 | inactive
RELT | 1 | 8.7 | 1.5 | inactive
C1QBP | 0 | 1.4 | -4.4 | inactive

8 consecutive records already listed, quoted:
Gene | two-siRNA summed score (-2 to +2) | mean protection from cisplatin (shift in death) (%) | protection from cisplatin (shift in death), siRNA C (%) | Outcome
LOC388282 | 0 | 4 | -15.4 | inactive
CAPZA3 | 0 | -5.7 | -1.5 | inactive
ALDH3A2 | 0 | 0.9 | 6 | inactive
LOC387706 | 0 | 17 | 13.6 | inactive
ENDOV | 0 | 4.4 | 28.5 | inactive
TXNL4B | 0 | 6.4 | 10.7 | inactive
IGFBP7 | 0 | -1.9 | 5.8 | inactive
LOC441004 | 0 | 8.9 | 4.7 | inactive

More records:
Gene | two-siRNA summed score (-2 to +2) | mean protection from cisplatin (shift in death) (%) | protection from cisplatin (shift in death), siRNA C (%) | Outcome
CKS1B | 0 | -2.7 | -21.9 | inactive
TMEM150A | 1 | 1 | -18.1 | inactive
DEPDC1B | 0 | 2.2 | 6.1 | inactive
ZNF189 | 0 | 6.8 | 18.3 | inactive
LOC345645 | -1 | -8.9 | -6.5 | inactive
TUSC1 | 0 | 15.3 | 15.8 | inactive
UGDH | 0 | -2 | 1.8 | inactive
GOLGA2P7 | 0 | 4.3 | -13.2 | inactive
KIAA0543 | 0 | 0.4 | -4.1 | inactive
ATG12 | 1 | 12.5 | 18.9 | inactive
MPLKIP | 1 | 9.1 | 11.6 | inactive
LOC387755 | 0 | 3.9 | 4.5 | inactive
MIR3667HG | 1 | 8.9 | 9.7 | inactive
ZNF134 | 1 | 9.1 | 7.9 | inactive
UNK | 0 | 7.6 | 11.1 | inactive
MMD | 0 | 24.2 | 14.1 | inactive
ZNG1A | 0 | 7.2 | -1.7 | inactive
PSD3 | 0 | 4.1 | -7.4 | inactive
PSD | 0 | -1.1 | -12.5 | inactive
RPL38 | 0 | 24 | 25.7 | inactive
LOC339521 | 1 | 10 | -3.5 | inactive
EPHB4 | -2 | -16.8 | -10.6 | active
ASH2L | 0 | 0.8 | -6.9 | inactive
LOC440555 | 1 | 12 | 4.4 | inactive
LOC391039 | -1 | 1.8 | -12.9 | inactive
ZBTB33 | 0 | 0.3 | -0.9 | inactive
LOC442365 | 0 | 19.9 | 12.5 | inactive
LOC440921 | 0 | 8.2 | 9.9 | inactive
SFXN3 | 0 | 15.7 | 15.4 | inactive
LIPT2-AS1 | 0 | 4.7 | -6.7 | inactive
SURF4 | 1 | 15.7 | 11 | inactive
IFI44 | 0 | 9.8 | 8.2 | inactive
ADM2 | 1 | 5 | 21 | inactive
HDGFL3 | 0 | 5.4 | 9 | inactive
IL18R1 | 1 | 8.2 | 14.8 | inactive
CFAP92 | 0 | 1 | 5.9 | inactive
LOC400623 | 0 | 3.8 | 7.5 | inactive
FLJ39779 | 1 | 11.7 | 12.5 | inactive
TMEM35A | 1 | 19.8 | 6 | inactive
GOLGA6B | 0 | 11.1 | 15.4 | inactive
LOC389087 | 0 | -2.6 | -11.2 | inactive
CLXN | 0 | 7.9 | 15.3 | inactive
PGRMC2 | -1 | -5.8 | 9.7 | inactive
